# The list shows a part of the results.
# Biological target: T1, OsSMF1 (Oryza sativa, UniProt Q6ZLB0 1-436)
# T1 sequence: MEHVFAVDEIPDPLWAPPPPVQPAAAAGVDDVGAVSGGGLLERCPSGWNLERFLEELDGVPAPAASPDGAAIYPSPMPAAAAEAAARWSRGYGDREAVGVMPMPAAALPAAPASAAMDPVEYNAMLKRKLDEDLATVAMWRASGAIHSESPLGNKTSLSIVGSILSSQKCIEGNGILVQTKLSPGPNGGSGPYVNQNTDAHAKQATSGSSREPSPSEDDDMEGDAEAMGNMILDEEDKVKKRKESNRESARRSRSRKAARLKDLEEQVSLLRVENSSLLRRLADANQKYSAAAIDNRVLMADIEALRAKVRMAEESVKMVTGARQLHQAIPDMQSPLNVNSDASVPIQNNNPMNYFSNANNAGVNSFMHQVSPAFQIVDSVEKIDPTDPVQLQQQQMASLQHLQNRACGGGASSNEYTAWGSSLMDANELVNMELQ
# Experiment: protein-binding microarray (RPBM); PBS, 2% BSA, 51.3 ng/ul salmon testes DNA, 50 uM zinc acetate, 200 nM TF, 25 C, 1 h; high values mean tight binding
# Conditions: protein: recombinant; tags: N-terminal polyhistidine and DsRed monomer fusion (pET32a); chain copies: 2; label: CyDye5-dUTP incorporated in the synthesized complementary strand; 3' TTTTT single-stranded linker to array surface; dsDNA, one strand shown
# Outline: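 Using Ni–NTA, transcription factors fused N-terminally to polyhistidine and DsRed were purified after expression in E. coli BL21-CodonPlus. These were incubated at 200 nM with a blocked, double-stranded custom Agilent array for 1 h at 25 °C in a buffer containing 50 µM zinc acetate, and the array was washed. The binding signal is per-feature fluorescence intensity (arbitrary units) on an Axon 4000B scanner.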
row,Sequence,binding signal
1,GCCGTAGAAAACAATGGATAGCACAGATTTGGCCAACTCCCGGAGTCACCTAGTGCAG,3250 fluorescence intensity (a.u.)
2,TGCCCGGGGCGCGCTACTACGGCGGGAACGACGTCATCGACGGAGTCACCTAGTGCAG,3940 fluorescence intensity (a.u.)
3,TCACATCCCATGCGAAGAACACATCACCCAGTTCACCACCCGGAGTCACCTAGTGCAG,4540 fluorescence intensity (a.u.)
4,TGTCAGTTGGCGAGGGATGCACTGATGACTATGCTAGTGCCGGAGTCACCTAGTGCAG,4860 fluorescence intensity (a.u.)
5,TGCATTCAGCGCTAGGTGCGAGAAGTGCTGGTCAAACACCCGGAGTCACCTAGTGCAG,32900 fluorescence intensity (a.u.)
6,GTGCCATCCTGATTTGTCCCTCCCTGTCGCCTCACTGTTTCGGAGTCACCTAGTGCAG,3300 fluorescence intensity (a.u.)
7,AGCCTCTTCCATCTCGAGCCAGCTCATATTGATTATCCAACGGAGTCACCTAGTGCAG,4850 fluorescence intensity (a.u.)
8,ATTGAATCATTTACTATGCTCTGCTTCTTCTTTCAGTTCACGGAGTCACCTAGTGCAG,15200 fluorescence intensity (a.u.)
9,GTGTACATCACACCGATAATAATCACGTAATCACGTTAGGCGGAGTCACCTAGTGCAG,3570 fluorescence intensity (a.u.)
10,CTCCAAAGCAGATCCACCCACGCGCCACCAGCTCATCATTCGGAGTCACCTAGTGCAG,4560 fluorescence intensity (a.u.)
11,AGAATAGCTCCAATTCAAATTCGGAAAGCCAATCGTCTTCCGGAGTCACCTAGTGCAG,35000 fluorescence intensity (a.u.)
12,AGATAATCCATAATAATAATTAGCTTAATAATCTAAATCACGGAGTCACCTAGTGCAG,27300 fluorescence intensity (a.u.)
13,TAATTTAGTATTATAAAGAGGGTGTGATCGGTACCCTCTTCGGAGTCACCTAGTGCAG,3320 fluorescence intensity (a.u.)
14,TCCTCCTCCTCCTCCGCTCGATTCCTCCTCTCGCCTCGCTCGGAGTCACCTAGTGCAG,5220 fluorescence intensity (a.u.)
15,AGCACTGTTGATCCTGCATGATTATCTTCGGCTGCTGATGCGGAGTCACCTAGTGCAG,4040 fluorescence intensity (a.u.)
16,ACACCGCTCGCCTCCGTCCGCCTCGCCTCCACCGAGAGGTCGGAGTCACCTAGTGCAG,27100 fluorescence intensity (a.u.)
17,GAGCGACGCGACGAGATTTTCCACGTGGATCGGGCCGGGACGGAGTCACCTAGTGCAG,14300 fluorescence intensity (a.u.)
18,CATGAAAGCTTGCAAGTCTAATAACACGTGTTTAATTGATCGGAGTCACCTAGTGCAG,4340 fluorescence intensity (a.u.)
19,GATGTGGGTTTCGTACACCGGCAGGTGACGGGTCGTGTCCCGGAGTCACCTAGTGCAG,4130 fluorescence intensity (a.u.)
20,CTGGTACTAATCTCTGACAGGGACAGAGTATTTACCAGTCCGGAGTCACCTAGTGCAG,4000 fluorescence intensity (a.u.)
21,CTTCGTATGTATAAACTATATGTAAGGAAATATTGTATATCGGAGTCACCTAGTGCAG,16400 fluorescence intensity (a.u.)

# Reformatted: results already given.
row	Sequence	binding signal
7	AGCCTCTTCCATCTCGAGCCAGCTCATATTGATTATCCAACGGAGTCACCTAGTGCAG	4850 fluorescence intensity (a.u.)
8	ATTGAATCATTTACTATGCTCTGCTTCTTCTTTCAGTTCACGGAGTCACCTAGTGCAG	15200 fluorescence intensity (a.u.)
9	GTGTACATCACACCGATAATAATCACGTAATCACGTTAGGCGGAGTCACCTAGTGCAG	3570 fluorescence intensity (a.u.)
10	CTCCAAAGCAGATCCACCCACGCGCCACCAGCTCATCATTCGGAGTCACCTAGTGCAG	4560 fluorescence intensity (a.u.)
11	AGAATAGCTCCAATTCAAATTCGGAAAGCCAATCGTCTTCCGGAGTCACCTAGTGCAG	35000 fluorescence intensity (a.u.)
12	AGATAATCCATAATAATAATTAGCTTAATAATCTAAATCACGGAGTCACCTAGTGCAG	27300 fluorescence intensity (a.u.)
13	TAATTTAGTATTATAAAGAGGGTGTGATCGGTACCCTCTTCGGAGTCACCTAGTGCAG	3320 fluorescence intensity (a.u.)
14	TCCTCCTCCTCCTCCGCTCGATTCCTCCTCTCGCCTCGCTCGGAGTCACCTAGTGCAG	5220 fluorescence intensity (a.u.)
15	AGCACTGTTGATCCTGCATGATTATCTTCGGCTGCTGATGCGGAGTCACCTAGTGCAG	4040 fluorescence intensity (a.u.)
16	ACACCGCTCGCCTCCGTCCGCCTCGCCTCCACCGAGAGGTCGGAGTCACCTAGTGCAG	27100 fluorescence intensity (a.u.)
17	GAGCGACGCGACGAGATTTTCCACGTGGATCGGGCCGGGACGGAGTCACCTAGTGCAG	14300 fluorescence intensity (a.u.)
18	CATGAAAGCTTGCAAGTCTAATAACACGTGTTTAATTGATCGGAGTCACCTAGTGCAG	4340 fluorescence intensity (a.u.)
19	GATGTGGGTTTCGTACACCGGCAGGTGACGGGTCGTGTCCCGGAGTCACCTAGTGCAG	4130 fluorescence intensity (a.u.)

# The listing continues.

row,Sequence,binding signal
1,TCAACAAGGAAATAAAATATCTGGTATTGTGGTTTTCAAGCGGAGTCACCTAGTGCAG,17600 fluorescence intensity (a.u.)
2,GCGGCGCGGCCGGGACTTGGCCGGCGTGGTCTGTCTGACACGGAGTCACCTAGTGCAG,3230 fluorescence intensity (a.u.)
3,CGTCCGTCATTGATTATGCCAGATCATAGCTGTACGTCGTCGGAGTCACCTAGTGCAG,6550 fluorescence intensity (a.u.)
4,GAGCTCCGACGAGCACCTCCCTGAAGCGTGGCAGGTCGAGCGGAGTCACCTAGTGCAG,3900 fluorescence intensity (a.u.)
5,TCATCTCTTCTCATCCATTTGCAATATCAAAATCACGGTGCGGAGTCACCTAGTGCAG,3210 fluorescence intensity (a.u.)
6,AGCTTGTAAAATTCCTTTTAGTTGTGATTAGTGATAATTACGGAGTCACCTAGTGCAG,18800 fluorescence intensity (a.u.)
7,GGTTAAGTAATCAACCAGTGATAGTTGGTGTGTTTATGTACGGAGTCACCTAGTGCAG,28300 fluorescence intensity (a.u.)
8,AGAGCTGACTCACATAGTGCCAGCCTGGCCATTGTTTCTGCGGAGTCACCTAGTGCAG,13300 fluorescence intensity (a.u.)
9,CTTTACATGGGCCTTGAGCCCATGGGCTCAATGTTTCGGCCGGAGTCACCTAGTGCAG,29600 fluorescence intensity (a.u.)
10,GTTGATAGTTGTCATATGCACTCCTTGTTAAGCTCGCTATCGGAGTCACCTAGTGCAG,3170 fluorescence intensity (a.u.)
11,TCCACCTCCGCTGCGTGCTCCCCTCCCTGCGTCGGCGCCCCGGAGTCACCTAGTGCAG,3960 fluorescence intensity (a.u.)
12,GAGTTTAATTAATTAATTTCTTAAAATTGATGTCATCACACGGAGTCACCTAGTGCAG,3140 fluorescence intensity (a.u.)
13,GTCTCCTGACGCGCACACGCCACCAACACCGCGACGCGACCGGAGTCACCTAGTGCAG,3820 fluorescence intensity (a.u.)
14,ACGTAGCCGTCACCGGGTTATAGCTGTTGCAAGCGGCGTCCGGAGTCACCTAGTGCAG,4290 fluorescence intensity (a.u.)
15,GTTGGTGGTGTAAGTGCAACAAGGGATGGCGTTGGTATAACGGAGTCACCTAGTGCAG,13400 fluorescence intensity (a.u.)
16,TTTGGTGGTATGACGTCCCTGAAAAGGTGGTTCGAGGATGCGGAGTCACCTAGTGCAG,4360 fluorescence intensity (a.u.)
17,ACACGGCCTATAAATATCTAACCATCCTTTGCCTGTCGAGCGGAGTCACCTAGTGCAG,4970 fluorescence intensity (a.u.)
18,ACTACTAGTAAAATTGTAATGGTCGTGTCATGTCGTTCTTCGGAGTCACCTAGTGCAG,5290 fluorescence intensity (a.u.)
19,TAGTTTTGTGATACACCGAGTTAAATATGTAGTTTTGTTACGGAGTCACCTAGTGCAG,4230 fluorescence intensity (a.u.)
20,GTCAGGTGGCGGCGGCGGCGGTGGTGGCGGTGGAGGTGGACGGAGTCACCTAGTGCAG,5570 fluorescence intensity (a.u.)
21,ATTCGTGTCCGAAAATCACTTCCAACACCCGATCAAACATCGGAGTCACCTAGTGCAG,3880 fluorescence intensity (a.u.)

# — paper PMC7819943, “Rice protein-binding microarrays: a tool to detect cis-acting elements near promoter regions in rice”
